# Results from one PubChem assay

Source: PubChem BioAssay AID1224904 (Broad Institute, 2016).

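293T-iDUX4 cells carrying a ZSCAN4-driven Gaussia luciferase and a tet-on Italica luciferase control; the gap between the two luminescence signals is read after 24 h. The test concentration is not given here. Percent difference between the Gaussia and Italica channels; more negative values mean more selective suppression of the DUX4 reporter, and higher values mean less activity.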

Values are in %. How 0% and 100% were set is not given here. Common to all entries: measured here: selective DUX4 reporter inhibition. Part of the compounds only, not a random draw; the main read-out is not listed here.

compound | Gaussia minus Italica difference (%)
COc1ccc(-c2ccc3c(c2)[C@@H]2[C@@H](CCN2Cc2ccccc2F)[C@H](CO)N3)cc1 | -14.65
COc1ccc2c3c(n(C)c2c1)[C@H](CO)N(C(=O)Nc1ccc(F)cc1)CC31CCN(S(=O)(=O)c2cccc(C)c2)CC1 | 2.39
O=C(CC1CC1)N1CC(=O)N2[C@H](C1)[C@@H](c1ccc(C#Cc3ccc(F)cc3)cc1)[C@@H]2CO | -2.173
O=C(C[C@@H]1CC[C@H]2[C@@H](COC[C@@H](O)CN2CCc2ccccc2)O1)N1CCC(Cc2ccccc2)CC1 | -5.769
CO[C@@H]1CN(C)C(=O)c2ccc(NC(=O)C3CCC3)cc2OC[C@@H](C)N(S(=O)(=O)c2ccc(Cl)cc2)C[C@H]1C | -16.02
CS(=O)(=O)N1[C@@H](CO)[C@@H](c2ccccc2)C12CN(Cc1cc(F)ccc1F)C2 | -18.35
COc1cccc(-c2ccc3c(c2)[C@@H]2[C@@H](CCN2C(=O)NC2CCCC2)[C@H](CO)N3C)c1 | 33.2
O=C(Nc1ccc(F)cc1)N1CC(=O)N2[C@H](CO)[C@H](c3ccc(C#Cc4ccccc4)cc3)[C@@H]2C1 | -3.712
Cc1cccc(S(=O)(=O)N2CC[C@@H]3[C@H](CO)Nc4ccc(C5=CCCCC5)cc4[C@@H]32)c1 | 32.42
O=C(c1ccc(F)cc1)N1CCCCN2[C@H](C1)[C@H](c1ccc(-c3ccccc3)cc1)[C@@H]2CO | -13.14
O=S(=O)(c1ccccc1F)N1CC[C@@H]2[C@H](CO)Nc3ccc(-c4ccccc4F)cc3[C@@H]21 | 2.46
COc1ccc(C#Cc2ccc([C@@H]3[C@H]4CN(C(=O)NC(C)C)CC(=O)N4[C@H]3CO)cc2)cc1 | 4.735
C[C@H](CO)N1C[C@H](C)[C@@H](CN(C)Cc2cccc(F)c2)OCc2ccccc2-c2c(n(C)c3ccccc23)C1=O | -15.79
OC[C@H]1[C@@H](c2ccc(/C=C/c3ccccc3)cc2)[C@H]2CN(Cc3ccncc3)CCCCN21 | 1.222
C[C@H]1CN([C@@H](C)CO)C(=O)c2c(c3ccccc3n2C)-c2ccccc2CO[C@@H]1CN(C)S(=O)(=O)c1ccc(F)cc1 | -5.946
COc1ccc(CN2CC3(C2)CN(Cc2ccc4c(c2)OCO4)[C@@H](CO)c2[nH]c4cc(OC)ccc4c23)cc1 | -24.35
COc1ccc2c3c([nH]c2c1)[C@H](CO)N(Cc1cccc(F)c1)CC31CCN(Cc2ccccn2)CC1 | -0.377
CCCNC(=O)N1CC(=O)N2[C@H](CO)[C@@H](c3ccc(C#Cc4ccccc4)cc3)[C@@H]2C1 | -1.271
N#Cc1ccc(-c2ccc3c(c2)[C@H]2[C@H](CCN2S(=O)(=O)c2cccc(F)c2)[C@@H](CO)N3)cc1 | -10.61
CN(C)C(=O)c1cccc(-c2ccc3c(c2)[C@H]2[C@H](CCN2C(=O)C2CCC2)[C@@H](CO)N3)c1 | -0.02442
COc1ccc2c3c(n(C)c2c1)[C@H](CO)N(C(=O)Nc1ccc(F)cc1)CC31CCN(Cc2ccccn2)CC1 | -11.78
COc1cccc(S(=O)(=O)N2C[C@@H]3N[C@H](C2)C3c2ccc(-c3ccc(C(=O)N(C)C)cc3)cc2)c1 (some centres not stated) | 6.229
COc1ccc2c3c(n(C)c2c1)[C@@H](CO)N(Cc1ccccc1Cl)CC31CCN(C(=O)CC2CC2)CC1 | -14.16
COc1ccc(C#Cc2ccc([C@H]3[C@@H](CO)N4CCCCN(S(=O)(=O)c5ccccc5)C[C@H]34)cc2)cc1 | -20
COc1ccc2c3c([nH]c2c1)[C@H](CO)N(Cc1cc(F)ccc1F)CC31CCN(C)CC1 | -5.121
O=C(Nc1ccccc1)N1CCCCN2[C@H](C1)[C@@H](c1ccc(Br)cc1)[C@@H]2CO | -15.09
Cc1ccc(OC(=O)N(C)C[C@H]2OCc3ccccc3-c3c(n(C)c4ccccc34)C(=O)N([C@H](C)CO)C[C@H]2C)cc1 | -8.003
CN1c2ccc(-c3cccc(C#N)c3)cc2[C@H]2[C@H](CCN2S(=O)(=O)c2ccccc2)[C@H]1CO | -3.465
CO[C@H]1CN(C)C(=O)c2cc(NC(=O)Nc3ccc(Cl)cc3)ccc2OC[C@H](C)N(C)C[C@@H]1C | 5.845
CCCNC(=O)N1[C@H](C#N)[C@H](c2ccccc2C2=CCCCC2)[C@@H]1CO | -6.136
O=C(C[C@@H]1C[C@@H]2c3cc(NC(=O)c4ccc5c(c4)OCO5)ccc3O[C@@H]2[C@@H](CO)O1)NCc1ccc(Oc2ccccc2)cc1 | -0.2151
C[C@H](NC(=O)C[C@@H]1C[C@@H]2c3cc(NC(=O)Nc4ccc(C(F)(F)F)cc4)ccc3O[C@@H]2[C@@H](CO)O1)c1ccccc1 | 14.53
Cc1ccc(-c2ccc([C@@H]3[C@H](CO)N4C(=O)CN(C(=O)c5ccncc5)C[C@@H]34)cc2)cc1 | -3.018
COc1cccc(CN2[C@@H]3CNC[C@H]2C3c2ccc(-c3ccccc3C)cc2)c1 (some centres not stated) | -5.593
O=C(Nc1ccc(C(F)(F)F)cc1)Nc1ccc2c(c1)[C@@H]1C[C@@H](CC(=O)N3CCc4ccccc4C3)O[C@H](CO)[C@@H]1O2 | -2.941
O=C(C[C@H]1C[C@@H]2c3cc(NS(=O)(=O)c4ccc(F)cc4)ccc3O[C@@H]2[C@@H](CO)O1)N1CCc2ccccc2C1 | -7.325
COc1ccccc1C#Cc1ccc([C@@H]2[C@@H](CO)N3CCCCN(CCC(F)(F)F)C[C@@H]23)cc1 | -18.15
CCCNC(=O)N1CC2(C1)[C@H](c1ccccc1)[C@@H](CO)N2Cc1ccc(Cl)cc1 | -15.94
COc1ccc(C#Cc2ccc([C@H]3[C@@H](CO)N4CCCCN(S(=O)(=O)c5ccccc5)C[C@@H]34)cc2)cc1 | -19.18
CCCNC(=O)N1CC(=O)N2[C@H](CO)[C@@H](c3ccc(C#Cc4cccc(F)c4)cc3)[C@H]2C1 | -1.877
C/C=C/c1ccc(C2[C@@H]3CN(Cc4cccc(F)c4)C[C@H]2N3)cc1 (some centres not stated) | -10.54
COc1ccc(S(=O)(=O)N2CCC3(CC2)CN(Cc2ccncc2)[C@@H](CO)c2[nH]c4cc(OC)ccc4c23)cc1 | -14.19
N#Cc1ccc(-c2ccc([C@@H]3[C@@H]4CN(C(=O)Nc5ccc6c(c5)OCO6)C[C@H]3N4)cc2)cc1 | -13.41
COc1ccccc1C(=O)Nc1ccc2c(c1)OC[C@@H](C)N(CC1CC1)C[C@H](C)[C@@H](OC)CN(C)C2=O | -8.68
CC(C)CC#Cc1ccc([C@H]2[C@H](CO)N3C(=O)CN(C(=O)c4ccc5c(c4)OCO5)C[C@@H]23)cc1 | -9.68
O=C(C[C@@H]1CC[C@@H]2[C@H](COC[C@@H](O)CN2Cc2ccc(Oc3ccccc3)cc2)O1)N1CCc2ccccc2C1 | -4.95
OC[C@@H]1Nc2ccc(C#Cc3ccccc3)cc2[C@H]2[C@@H]1CCN2Cc1nccs1 | -7.692
CN1C(=O)c2cc(NC(=O)c3ccc(Cl)cc3)ccc2OC[C@@H]2O[C@@H](CC(=O)NCc3cccc(F)c3)CC[C@@H]21 | 4.646
O=C(Nc1cccc(F)c1)N1CCCCN2[C@@H](CO)[C@H](c3ccc(C#CC4CC4)cc3)[C@@H]2C1 | 0.7525
CC(C)[C@H](C)NC(=O)N(C)C[C@H]1OCc2ccccc2-c2c(n(C)c3ccccc23)C(=O)N([C@H](C)CO)C[C@@H]1C | 6.786